Data published in the supplement of paper PMC12067093, “Discovery and optimisation of a covalent ligand for TRIM25 and its application to targeted protein ubiquitination” (Chemical Science, 2025).
This is one part of the list.

Amino acid sequences for entries named in this document (tags omitted). A change or cut given only in a name is not applied to a line headed by its entry.
UniProt Q15436: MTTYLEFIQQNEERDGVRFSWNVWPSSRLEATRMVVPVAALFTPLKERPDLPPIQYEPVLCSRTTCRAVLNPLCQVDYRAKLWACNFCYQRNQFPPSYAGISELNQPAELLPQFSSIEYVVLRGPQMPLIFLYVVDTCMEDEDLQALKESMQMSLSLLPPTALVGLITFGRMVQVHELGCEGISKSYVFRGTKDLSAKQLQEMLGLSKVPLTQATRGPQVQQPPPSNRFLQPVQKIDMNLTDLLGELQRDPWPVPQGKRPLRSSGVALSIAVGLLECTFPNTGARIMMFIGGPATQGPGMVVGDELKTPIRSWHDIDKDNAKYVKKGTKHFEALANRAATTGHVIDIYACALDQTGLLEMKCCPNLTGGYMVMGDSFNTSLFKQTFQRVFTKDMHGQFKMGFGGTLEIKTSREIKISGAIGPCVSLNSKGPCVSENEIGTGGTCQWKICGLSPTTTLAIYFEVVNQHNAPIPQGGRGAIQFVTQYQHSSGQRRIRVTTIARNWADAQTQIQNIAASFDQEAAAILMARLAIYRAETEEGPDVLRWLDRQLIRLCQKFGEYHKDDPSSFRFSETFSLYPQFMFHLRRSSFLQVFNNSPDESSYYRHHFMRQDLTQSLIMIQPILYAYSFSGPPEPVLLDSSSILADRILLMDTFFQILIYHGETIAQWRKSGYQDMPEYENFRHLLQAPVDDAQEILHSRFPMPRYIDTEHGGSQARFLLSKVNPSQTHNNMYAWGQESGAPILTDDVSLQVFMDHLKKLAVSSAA
UniProt Q9GZR1: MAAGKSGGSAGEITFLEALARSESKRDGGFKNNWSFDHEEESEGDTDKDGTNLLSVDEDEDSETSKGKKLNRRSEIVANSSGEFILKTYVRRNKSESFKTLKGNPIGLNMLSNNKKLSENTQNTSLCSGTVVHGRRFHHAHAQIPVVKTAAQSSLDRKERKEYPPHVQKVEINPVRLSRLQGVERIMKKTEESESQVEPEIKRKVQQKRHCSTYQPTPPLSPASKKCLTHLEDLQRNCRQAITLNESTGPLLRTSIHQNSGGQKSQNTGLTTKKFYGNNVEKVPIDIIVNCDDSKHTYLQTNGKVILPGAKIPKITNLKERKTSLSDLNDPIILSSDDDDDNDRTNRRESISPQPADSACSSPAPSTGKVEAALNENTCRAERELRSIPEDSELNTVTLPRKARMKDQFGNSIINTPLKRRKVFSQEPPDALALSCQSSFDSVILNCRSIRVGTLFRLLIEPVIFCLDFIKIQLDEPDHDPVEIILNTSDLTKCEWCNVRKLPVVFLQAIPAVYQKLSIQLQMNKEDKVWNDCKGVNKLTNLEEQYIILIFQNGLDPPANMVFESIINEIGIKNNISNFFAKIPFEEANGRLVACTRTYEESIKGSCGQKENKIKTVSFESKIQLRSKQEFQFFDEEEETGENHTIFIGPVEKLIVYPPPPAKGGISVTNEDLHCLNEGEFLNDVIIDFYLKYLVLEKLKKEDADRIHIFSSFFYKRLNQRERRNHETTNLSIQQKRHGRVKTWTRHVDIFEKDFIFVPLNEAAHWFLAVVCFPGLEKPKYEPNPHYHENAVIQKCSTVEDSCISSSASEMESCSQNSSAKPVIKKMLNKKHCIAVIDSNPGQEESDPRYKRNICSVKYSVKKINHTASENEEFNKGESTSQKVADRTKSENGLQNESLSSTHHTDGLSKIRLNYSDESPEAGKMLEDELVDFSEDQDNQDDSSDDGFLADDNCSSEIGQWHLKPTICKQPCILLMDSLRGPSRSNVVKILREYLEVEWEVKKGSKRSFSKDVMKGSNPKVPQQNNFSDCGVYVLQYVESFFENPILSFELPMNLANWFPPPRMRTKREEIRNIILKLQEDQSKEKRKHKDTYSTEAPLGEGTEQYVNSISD
UniProt O94979: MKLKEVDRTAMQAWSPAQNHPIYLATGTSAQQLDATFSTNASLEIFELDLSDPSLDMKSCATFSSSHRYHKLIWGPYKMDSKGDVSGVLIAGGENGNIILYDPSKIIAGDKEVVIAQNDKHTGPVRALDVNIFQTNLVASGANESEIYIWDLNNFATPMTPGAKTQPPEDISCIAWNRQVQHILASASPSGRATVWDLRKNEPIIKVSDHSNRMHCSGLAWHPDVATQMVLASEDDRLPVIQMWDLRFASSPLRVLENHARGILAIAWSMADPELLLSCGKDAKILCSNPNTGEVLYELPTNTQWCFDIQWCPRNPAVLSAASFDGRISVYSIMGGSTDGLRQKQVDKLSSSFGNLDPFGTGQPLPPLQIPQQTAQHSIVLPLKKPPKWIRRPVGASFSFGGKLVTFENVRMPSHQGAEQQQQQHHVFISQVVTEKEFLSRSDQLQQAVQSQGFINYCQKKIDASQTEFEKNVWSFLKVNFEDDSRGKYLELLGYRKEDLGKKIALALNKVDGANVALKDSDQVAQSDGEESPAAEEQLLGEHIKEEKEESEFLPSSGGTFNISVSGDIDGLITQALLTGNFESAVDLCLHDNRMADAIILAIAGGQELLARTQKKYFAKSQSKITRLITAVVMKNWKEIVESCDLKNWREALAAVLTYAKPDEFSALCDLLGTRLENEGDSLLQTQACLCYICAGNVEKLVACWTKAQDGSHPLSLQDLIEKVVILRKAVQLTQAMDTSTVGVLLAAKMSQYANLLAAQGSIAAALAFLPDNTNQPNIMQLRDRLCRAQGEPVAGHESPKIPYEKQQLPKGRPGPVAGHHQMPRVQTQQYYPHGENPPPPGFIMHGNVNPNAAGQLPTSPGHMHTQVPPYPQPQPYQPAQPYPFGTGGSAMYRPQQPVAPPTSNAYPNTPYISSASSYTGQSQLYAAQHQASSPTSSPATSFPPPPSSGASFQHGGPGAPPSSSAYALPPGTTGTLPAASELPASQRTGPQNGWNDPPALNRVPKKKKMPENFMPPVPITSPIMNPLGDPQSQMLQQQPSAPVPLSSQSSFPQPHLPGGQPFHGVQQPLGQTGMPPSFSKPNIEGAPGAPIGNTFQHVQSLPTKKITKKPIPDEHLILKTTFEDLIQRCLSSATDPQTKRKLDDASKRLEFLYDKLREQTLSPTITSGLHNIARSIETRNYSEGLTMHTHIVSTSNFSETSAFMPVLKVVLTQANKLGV
UniProt O94855: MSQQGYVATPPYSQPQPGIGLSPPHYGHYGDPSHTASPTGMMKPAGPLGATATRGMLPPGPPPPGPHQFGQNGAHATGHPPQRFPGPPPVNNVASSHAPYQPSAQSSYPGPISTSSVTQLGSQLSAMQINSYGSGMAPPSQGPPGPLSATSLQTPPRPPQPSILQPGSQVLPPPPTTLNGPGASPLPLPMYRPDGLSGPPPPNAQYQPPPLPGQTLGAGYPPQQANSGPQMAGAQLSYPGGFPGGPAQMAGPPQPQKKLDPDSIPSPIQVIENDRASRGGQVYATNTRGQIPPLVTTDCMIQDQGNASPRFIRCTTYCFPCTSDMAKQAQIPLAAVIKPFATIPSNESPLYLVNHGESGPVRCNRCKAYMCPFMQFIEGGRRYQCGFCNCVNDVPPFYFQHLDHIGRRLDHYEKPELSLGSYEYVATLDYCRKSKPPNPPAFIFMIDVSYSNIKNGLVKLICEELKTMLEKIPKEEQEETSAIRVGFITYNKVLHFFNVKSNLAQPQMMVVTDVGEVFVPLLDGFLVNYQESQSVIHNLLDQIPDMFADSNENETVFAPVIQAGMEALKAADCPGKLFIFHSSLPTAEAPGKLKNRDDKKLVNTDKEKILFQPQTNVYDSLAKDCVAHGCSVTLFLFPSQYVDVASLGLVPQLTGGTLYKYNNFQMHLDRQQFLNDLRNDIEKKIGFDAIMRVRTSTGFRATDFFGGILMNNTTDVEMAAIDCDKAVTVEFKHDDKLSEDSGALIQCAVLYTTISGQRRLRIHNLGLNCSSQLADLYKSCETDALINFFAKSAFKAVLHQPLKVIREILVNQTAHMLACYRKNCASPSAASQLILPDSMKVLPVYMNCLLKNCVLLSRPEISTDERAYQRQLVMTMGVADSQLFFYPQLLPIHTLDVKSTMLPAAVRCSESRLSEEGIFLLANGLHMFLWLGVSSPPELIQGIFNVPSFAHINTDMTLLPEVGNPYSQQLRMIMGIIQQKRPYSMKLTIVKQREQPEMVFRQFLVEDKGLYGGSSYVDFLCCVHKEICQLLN
UniProt Q15020: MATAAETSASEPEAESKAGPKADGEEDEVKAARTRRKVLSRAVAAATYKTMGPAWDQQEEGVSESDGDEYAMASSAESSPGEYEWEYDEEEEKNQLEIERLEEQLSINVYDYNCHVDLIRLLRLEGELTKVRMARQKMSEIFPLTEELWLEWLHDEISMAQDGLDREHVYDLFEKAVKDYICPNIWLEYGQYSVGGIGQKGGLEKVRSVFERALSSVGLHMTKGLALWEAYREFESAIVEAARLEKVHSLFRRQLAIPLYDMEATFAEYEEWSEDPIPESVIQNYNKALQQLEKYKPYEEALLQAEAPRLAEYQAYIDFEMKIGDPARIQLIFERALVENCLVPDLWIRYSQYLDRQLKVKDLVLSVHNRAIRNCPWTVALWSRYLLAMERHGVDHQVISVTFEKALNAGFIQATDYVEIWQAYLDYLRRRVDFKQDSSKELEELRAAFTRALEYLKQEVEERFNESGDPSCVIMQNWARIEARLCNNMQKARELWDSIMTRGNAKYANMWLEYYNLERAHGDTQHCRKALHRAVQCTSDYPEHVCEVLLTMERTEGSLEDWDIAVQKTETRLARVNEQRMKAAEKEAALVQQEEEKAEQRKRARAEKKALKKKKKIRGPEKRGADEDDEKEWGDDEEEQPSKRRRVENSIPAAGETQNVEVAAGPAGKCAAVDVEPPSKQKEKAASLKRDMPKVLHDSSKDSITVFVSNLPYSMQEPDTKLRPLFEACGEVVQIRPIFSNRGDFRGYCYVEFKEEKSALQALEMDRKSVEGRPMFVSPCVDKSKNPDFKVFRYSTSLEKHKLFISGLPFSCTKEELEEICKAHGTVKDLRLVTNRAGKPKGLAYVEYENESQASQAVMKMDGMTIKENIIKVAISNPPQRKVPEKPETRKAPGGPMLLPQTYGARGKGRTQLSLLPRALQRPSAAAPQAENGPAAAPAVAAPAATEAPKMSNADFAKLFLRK
UniProt Q99719: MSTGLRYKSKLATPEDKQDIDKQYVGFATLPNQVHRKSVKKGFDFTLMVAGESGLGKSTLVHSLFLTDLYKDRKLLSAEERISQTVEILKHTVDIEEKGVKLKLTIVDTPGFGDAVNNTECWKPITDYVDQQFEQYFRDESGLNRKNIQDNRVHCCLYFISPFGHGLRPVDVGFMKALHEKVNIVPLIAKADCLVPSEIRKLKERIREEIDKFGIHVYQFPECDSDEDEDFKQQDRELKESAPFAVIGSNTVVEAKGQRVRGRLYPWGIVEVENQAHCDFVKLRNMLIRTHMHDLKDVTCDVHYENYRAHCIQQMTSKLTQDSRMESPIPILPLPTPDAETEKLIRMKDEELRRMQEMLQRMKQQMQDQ
UniProt Q9UHR5: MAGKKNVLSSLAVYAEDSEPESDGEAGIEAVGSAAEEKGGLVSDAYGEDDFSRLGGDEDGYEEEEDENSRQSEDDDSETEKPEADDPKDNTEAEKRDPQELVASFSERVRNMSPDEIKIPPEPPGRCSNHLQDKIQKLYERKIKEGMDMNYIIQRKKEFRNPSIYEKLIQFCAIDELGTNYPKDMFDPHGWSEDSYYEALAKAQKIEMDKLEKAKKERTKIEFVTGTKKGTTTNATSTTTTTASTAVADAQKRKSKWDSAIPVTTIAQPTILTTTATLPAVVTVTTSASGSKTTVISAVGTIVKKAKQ
UniProt Q9UGP8: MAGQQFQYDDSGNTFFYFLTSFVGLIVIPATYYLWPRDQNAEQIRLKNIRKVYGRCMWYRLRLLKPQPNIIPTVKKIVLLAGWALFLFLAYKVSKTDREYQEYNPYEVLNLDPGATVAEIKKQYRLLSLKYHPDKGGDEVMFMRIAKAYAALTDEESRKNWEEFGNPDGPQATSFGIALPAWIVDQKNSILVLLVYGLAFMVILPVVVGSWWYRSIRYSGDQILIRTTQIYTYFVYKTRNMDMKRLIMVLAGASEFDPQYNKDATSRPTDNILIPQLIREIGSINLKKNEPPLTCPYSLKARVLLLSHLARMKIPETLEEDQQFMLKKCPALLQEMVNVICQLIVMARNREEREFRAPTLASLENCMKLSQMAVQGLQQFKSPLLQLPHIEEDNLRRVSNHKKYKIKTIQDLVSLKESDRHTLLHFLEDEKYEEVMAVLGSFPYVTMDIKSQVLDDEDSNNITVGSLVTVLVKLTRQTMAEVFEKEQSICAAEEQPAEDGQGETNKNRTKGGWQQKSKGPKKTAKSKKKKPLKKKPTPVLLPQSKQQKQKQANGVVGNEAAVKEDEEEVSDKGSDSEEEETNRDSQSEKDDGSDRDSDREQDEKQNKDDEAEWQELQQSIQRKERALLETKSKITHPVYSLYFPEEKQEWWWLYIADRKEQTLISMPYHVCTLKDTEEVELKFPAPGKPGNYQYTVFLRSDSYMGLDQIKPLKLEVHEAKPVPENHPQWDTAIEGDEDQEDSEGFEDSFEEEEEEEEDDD

Compound: Cc1cc(ccc1-c1ccccc1)C(=O)N1CCCN(CC1)C(=O)CCl [compound 10]
Assay: probe-labelled cysteine peptide fold change vs DMSO (competition) (log2 fold change); higher = less target engagement (more negative = stronger competition)
Conditions: THP-1, incubation time: 4 h
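Note: competitive profiling in live THP-1 cells: cysteine peptides tagged with an iodoacetamide desthiobiotin (IA-DTB) probe, intensity after compound treatment relative to DMSO-treated cells.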

Row | Target | probe-labelled cysteine peptide fold change (10 µM) | probe-labelled cysteine peptide fold change (50 µM)
1 | SEC23A_Q15436_350_AATTGHVIDIYACALDQTGLLEMK (UniProt Q15436) | -0.0364 | 0.0464
2 | SENP6_Q9GZR1_972_QPCILLMDSLR (UniProt Q9GZR1) | -0.104 | -0.0157
3 | SEC31A_O94979_173_TQPPEDISCIAWNR (UniProt O94979) | 0.0307 | 0.197
4 | SEC24B_O95487_1267_TEAAFSYYEFLLHVQQQICK (UniProt O95487) | 0.232 | 0.457
5 | SCRIB_Q14160_334_NHLEALPPEIGGCVALSVLSLR (UniProt Q14160) | 0.399 | -0.214
6 | SEH1L_Q96EE3_161_IYEAPDVMNLSQWSLQHEISCK (UniProt Q96EE3) | 0.0732 | -0.0756
7 | SCYL1_Q96KG9_451_CNTTVCLGK (UniProt Q96KG9) | -0.262 | -0.242
8 | SDF2_Q99470_137_NLHSHHFTSPLSGNQEVSAFGEEGEGDYLDDWTVLCNGPYWVR (UniProt Q99470) | 0.365 | 0.0175
9 | SDF2L1_Q9HCN8_149_CSGQHWER (UniProt Q9HCN8) | -0.0611 | 0.0671
10 | SEC16A_O15027_1451_FSVPHVCAR (UniProt O15027) | 0.00133 | 0.128
11 | SEC23A_Q15436_88_LWACNFCYQR (UniProt Q15436) | -0.0355 | -0.152
12 | SCFD2_Q8WU76_54_LLEAVGGPDCHLR (UniProt Q8WU76) | 0.0371 | 0.181
13 | SDS_P20132_270_ILVEPACGAALAAVYSHVIQK (UniProt P20132) | 0.201 | 0.177
14 | SEL1L_Q9UBV2_141_EYDECTSDGR (UniProt Q9UBV2) | -0.263 | 0.593
15 | SEC24D_O94855_431_RLDHYEKPELSLGSYEYVATLDYCR (UniProt O94855) | -0.00433 | -0.0677
16 | SEC24D_O94855_853_NCVLLSRPEISTDER (UniProt O94855) | 0.103 | -0.191
17 | SDCBP_O00560_239_NGLLTEHNICEINGQNVIGLK (UniProt O00560) | -0.0194 | 0.0465
18 | SART3_Q15020_114_NQLEIERLEEQLSINVYDYNCHVDLIR (UniProt Q15020) | 0.0864 | -0.000636
19 | SEPT5_Q99719_193_ADCLVPSEIR (UniProt Q99719) | -0.101 | 0.0279

Looked up one by one from the entries so far, 2 records:
Row | Target | probe-labelled cysteine peptide fold change (10 µM) | probe-labelled cysteine peptide fold change (50 µM)
19 | SEPT5_Q99719_193_ADCLVPSEIR (UniProt Q99719) | -0.101 | 0.0279
15 | SEC24D_O94855_431_RLDHYEKPELSLGSYEYVATLDYCR (UniProt O94855) | -0.00433 | -0.0677

The list continues:

Row | Target | probe-labelled cysteine peptide fold change (10 µM) | probe-labelled cysteine peptide fold change (50 µM)
20 | SEC31A_O94979_60_SCATFSSSHR (UniProt O94979) | 0.205 | 0.141
21 | SEC14L1_Q92503_614_DYSMVESPLICK (UniProt Q92503) | -0.418 | -0.526
22 | SEC24D_O94855_780_SCETDALINFFAK (UniProt O94855) | -0.0434 | 0.241
23 | SDSL_Q96GA7_69_HLVCSSGGNAGIAAAYAAR (UniProt Q96GA7) | 0.0382 | 0.127
24 | SDHA_P31040_654_TLNEADCATVPPAIR (UniProt P31040) | -0.34 | 0.157
25 | SART3_Q15020_780_PMFVSPCVDK (UniProt Q15020) | -0.00442 | -0.0279
26 | SEC23B_Q15437_61_ERPDLPPVQYEPVLCSR (UniProt Q15437) | 0.0959 | 0.0833
27 | SCRN1_Q12765_54_VECTYISIDQVPR (UniProt Q12765) | 0.0546 | 0.121
28 | SDHA_P31040_475_ACALSIEESCRPGDKVPPIKPNAGEESVMNLDK (UniProt P31040) | -0.0585 | -0.104
29 | SCCPDH_Q8NBX0_77_LGRPTLSSEVGIIICDIANPASLDEMAK (UniProt Q8NBX0) | 0.218 | 0.131
30 | SCAF11_Q99590_450_SCNEQIEESEK (UniProt Q99590) | -0.364 | -0.315
31 | SCLY_Q96I15_388_VLMASVGAACHSDHGDQPSPVLLSYGVPFDVAR (UniProt Q96I15) | -0.181 | -0.401
32 | SBDS_Q9Y3A5_84_EDLISAFGTDDQTEICK (UniProt Q9Y3A5) | 0.103 | 0.224
33 | SEPT11_Q9NVA2_150_IHACLYFIAPTGHSLK (UniProt Q9NVA2) | -0.125 | 0.227
34 | SAP30BP_Q9UHR5_127_CSNHLQDK (UniProt Q9UHR5) | -0.0884 | -0.31
35 | SEC63_Q9UGP8_295_KNEPPLTCPYSLK (UniProt Q9UGP8) | -0.404 | -1.57
36 | SEC23IP_Q9Y6Y8_678_EKIDMESLLMCTVDDLK (UniProt Q9Y6Y8) | 0.0447 | -0.159
37 | SELENOF_O60613_73_GCCQEEAQFETK (UniProt O60613) | -0.0984 | 0.258
38 | SEC63_Q9UGP8_490_EQSICAAEEQPAEDGQGETNK (UniProt Q9UGP8) | -0.2 | 0.025
